# PubChem BioAssay AID743238 (Broad Institute, 2013)
# About 200 (0.056%) of roughly 360,000 compounds were called active. This list was built around the results that the source calls inconclusive (neither active nor inactive); the mix of calls is not that of the screen.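 The calls were made as follows: active = mean normalized replicate activation at least 10% and every replicate at or above 10%; inconclusive = only one of the two criteria met; inactive = mean below 10% and not all replicates reach 10%.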
# Assay: activators of inactive X chromosome reactivation, primary screen, imaging, XiGFP fibroblasts, GFP high-content imaging, set 2 (AID 743238);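 also: 0% = median of on-plate neutral control wells and 100% = ellipticine 6 µM median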
# Settings: XiGFP mouse fibroblasts, % GFP-positive cells imaging, 3 d; at 7.58 µM; active compounds read high; cells co-treated with 5-aza-dC sensitizer; scaled so ellipticine positive control = 100%
# How it was run: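 Material: SV40-immortalized XiGFP fibroblast cells, line 68-5-11 | Buffer or medium: DMEM containing 5-aza-dC | Dosing: One concentration, pinned | Times: 3 d treatment, 15 min room-temperature fixation | Controls: Ellipticine 6 µM positive control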
row,SMILES,activation
1,COc1ccc2c3c(n(C)c2c1)[C@H](CO)N(C(=O)CN1CCOCC1)CC31CCN(C(=O)Nc2cccc(F)c2)CC1,inconclusive: 36.4%
2,Cn1c(=O)c(C#N)c(-c2ccc(F)cc2)c2cc(C(=O)c3cc(Cl)cc(Cl)c3O)cnc21,inconclusive: 15.5%
3,Cc1ccc(Cl)cc1NC(=O)CCC(=O)O,inconclusive: 17.4%
4,O=C(c1ccccc1)c1c2c(cc3sc4ccccc4[n+]13)-c1cccc3cccc-2c13,active: 72.7%
5,Cc1ncsc1C(=O)Nc1cccc(C(F)(F)F)c1,inconclusive: 49.1%
6,CN(C)S(=O)(=O)c1ccc2c(c1)/C(=C/c1cc3c([nH]1)CCCC3)C(=O)N2,active: 113%
7,C[C@H](C(=O)N(C)C[C@@H]1OCc2ccccc2-c2ccccc2C(=O)N([C@H](C)CO)C[C@H]1C)c1ccccc1,inactive: -1.26%
8,CC(C)Oc1ccc(/C(O)=C2/C(=O)C(=O)N(CCN(C)C)C2c2cccs2)cc1 (centres undefined),inconclusive: 26.8%
9,O=C(/C=C/c1ccc(Cl)cc1)c1ccc([N+](=O)[O-])o1,inconclusive: 12.3%
10,Cc1ccc(S(=O)(=O)N2CC3(O)CN(C(=O)OC(C)C)N(C(=O)OC(C)C)CC3(OC(=O)NCc3ccccc3)C2)cc1 (centres undefined),inconclusive: 48.8%
11,C[C@@H]1CN([C@H](C)CO)C(=O)c2cc(NS(=O)(=O)c3ccc(Cl)cc3)ccc2O[C@H]1CN(C)Cc1ccccc1,inactive: -1.36%
12,COc1ccc(-n2c(SCC(=O)NCC3CCCO3)nc3c([nH]c4ccccc43)c2=O)cc1 (centres undefined),inactive: -0.0105%
13,C[C@H](CO)N1C[C@H](C)[C@H](CN(C)S(=O)(=O)c2cccs2)Oc2c(NC(=O)C3CCCCC3)cccc2C1=O,inactive: -0.045%
14,CCC(C)c1nc2ccsc2c(N2CCOC2=O)c1-c1ccccc1 (centres undefined),active: 18.8%
15,CCN(CC)CCCNC1=C(Cl)C(=O)c2ccccc2C1=O,inconclusive: 11.8%
16,Cc1cc(C)cc(NC(=O)/C=C/c2ccc([N+](=O)[O-])s2)c1,inconclusive: 34.5%
17,O=C(COC(=O)/C=C/c1cccc(C(F)(F)F)c1)NC(=O)NCc1ccco1,inconclusive: 10.5%
18,COc1ccccc1Nc1nc(NCCO)nc(N2CCCC2)n1,inactive: 0%
19,C=CCN1C(=O)[C@@H]2Cc3c([nH]c4ccccc34)C(c3cc(OC)c(OC)c(OC)c3)N2C1=S (some centres undefined),active: 90.7%
20,CCOC(=O)/C(C#N)=C/C=C1/C=CC=CN1C,inconclusive: 12.8%
21,COc1ccc(S(=O)(=O)N(C)C[C@H]2OCCCC[C@H](C)Oc3ccc(NC(=O)C4CCCCC4)cc3C(=O)N([C@H](C)CO)C[C@H]2C)cc1,inactive: -0.121%
22,CN1[C@@H]2c3ccc(C4=CCCC4)c(=O)n3C[C@H]1[C@H](CO)[C@H]2C(=O)N1CCCCC1,inactive: -0.034%
23,Cn1c(=O)[nH]c(=O)c2c1nc(SCCN1CCOCC1)n2CCCc1ccccc1,inconclusive: 10.9%
24,Cc1n[nH]c(=S)n(/N=C/c2cccc([N+](=O)[O-])c2)c1=O,inconclusive: 17.3%
25,N/C(=N\OC(=O)C12CC3CC(CC(C3)C1)C2)c1ccncc1,inconclusive: 14%

# A different layout for some results above.
row | SMILES | activation
8 | CC(C)Oc1ccc(/C(O)=C2/C(=O)C(=O)N(CCN(C)C)C2c2cccs2)cc1 (centres undefined) | inconclusive: 26.8%
9 | O=C(/C=C/c1ccc(Cl)cc1)c1ccc([N+](=O)[O-])o1 | inconclusive: 12.3%
10 | Cc1ccc(S(=O)(=O)N2CC3(O)CN(C(=O)OC(C)C)N(C(=O)OC(C)C)CC3(OC(=O)NCc3ccccc3)C2)cc1 (centres undefined) | inconclusive: 48.8%
11 | C[C@@H]1CN([C@H](C)CO)C(=O)c2cc(NS(=O)(=O)c3ccc(Cl)cc3)ccc2O[C@H]1CN(C)Cc1ccccc1 | inactive: -1.36%

# (further entries)

row,SMILES,activation
1,O=C(c1ccc(S(=O)(=O)c2ccc(Cl)cc2)cc1)N1CCOCC1,inconclusive: 14.3%
2,CCN1/C(=C/c2ccc3cc(C)ccc3[n+]2CC)Sc2cc(C)ccc21,active: 102%
3,C[C@H](CO)N1C[C@H](C)[C@H](CN(C)Cc2cccc(O)c2)OCc2cnnn2CCCC1=O,inactive: -0.619%
4,COc1ccc(/C=C/C(=O)c2ccc([N+](=O)[O-])o2)cc1OC,active: 14.3%
5,CCc1ccc(NS(=O)(=O)c2cccc3nonc23)cc1,inconclusive: 21.4%
6,COC(=O)Nc1ccc(S(=O)(=O)N2CCCC(C(=O)N3CCN(C)CC3)C2)cc1 (centres undefined),inconclusive: 12.2%
7,CC(=NNc1nc2ccccc2o1)c1cc2ccccc2cn1,active: 72.9%
8,C[C@@H]1C[C@H]2[C@@H]3CCC4=CC(=O)C=C[C@]4(C)[C@@]3(F)[C@@H](O)C[C@]2(C)[C@H]1C(=O)CO,inconclusive: 31.2%
9,CCNC(=O)Nc1ccc2c(c1)C(=O)N(C)[C@H]1CC[C@@H](CC(=O)NCCOC)O[C@@H]1CO2,inactive: 0.0965%
10,O=C(CC1CC1)N1CC(=O)N2[C@@H](CO)[C@H](c3ccc(C#Cc4ccc(F)cc4)cc3)[C@@H]2C1,inconclusive: 18.5%
11,Cc1noc(C(=O)Nc2ccc(C#N)cc2)c1Cl,inactive: 0.0845%
12,CC(C)n1c(NCc2cc(Cl)ccc2O)nc2ccccc21,inconclusive: 13.8%
13,CCOC(=O)Nc1ccc2nc(-c3cscn3)[nH]c2c1,inconclusive: 20.6%
14,Cc1ccc(NC(=O)c2ncn(CCCNCCCN(C)C)n2)cc1C,inconclusive: 14.9%
15,COc1ccc(-c2nn(-c3ccccc3)cc2C(=O)NC(=S)Nc2cc(Cl)ccc2Cl)cc1,inconclusive: 14.3%
16,CC(NC(=O)c1ccccc1)C(=O)N/N=C/c1ccccc1 (centres undefined),inconclusive: 18.5%
17,COc1cc2c3nnc(-c4ccc(F)cc4)c-3cn(Cc3ccc(C)cc3)c2cc1OC,active: 98%
18,COc1ccc2c3c([nH]c2c1)[C@H](CO)N(C(=O)c1cccnc1)CC31CCN(Cc2ccccc2)CC1,inconclusive: 10.3%
19,COc1ccc(-c2ccc(C#N)c(SCC(=O)NCc3ccco3)n2)cc1OC,inconclusive: 19.5%
20,C[C@H]1CN([C@@H](C)CO)C(=O)c2cccc(NC(=O)c3ccncc3)c2O[C@H]1CN(C)Cc1ccc(Cl)c(Cl)c1,inactive: 0.088%
21,COc1cc(/C=N/Nc2nc(N3CCCC3)nc(N3CCCC3)n2)ccc1OCc1ccccc1F,inconclusive: 11%
22,Cc1cc(-c2nc(C)c(-c3nnc(SCC(=O)Nc4ccc(Cl)cc4)n3C)s2)no1,inconclusive: 17.5%
23,O=C(C[C@H]1CC[C@H]2[C@@H](COC[C@@H](O)CN2C(=O)Nc2ccccc2)O1)NCCc1ccncc1,inconclusive: 13%
24,CCOC(=O)Cn1c(=O)c(-c2cc(Br)ccc2N)nc2ccccc21,inconclusive: 17.5%
